The results in this text go back to the supplement of paper PMC9433722.

Counter-ions that a name gives are not always drawn. This is one part of the list. Many values rest on one well or one pass, so single values are uncertain.

The first assay has as its system Saos-2. Description: cell viability (CCK-8) relative to DMSO control (% of control); higher = less cytotoxic. As to conditions: 10 µM; 48 h.
`CN1C[C@H](C(=O)N[C@]2(C)O[C@@]3(O)[C@@H]4CCCN4C(=O)[C@H](Cc4ccccc4)N3C2=O)C[C@@H]2c3cccc4[nH]cc(c34)C[C@H]21` [Dihydroergotamine Mesylate] yielded a cell viability of 56.9.

In the case of `CN(C)C(=O)Oc1ccc[n+](C)c1` [Pyridostigmine Bromide], the cell viability stood at 107.

For `N.N.[Cl][Pt][Cl]` [Cisplatin], the cell viability stood at 93.4.

Turning to `CCN(C(C)=O)c1cccc(-c2ccnc3c(C#N)cnn23)c1` [Zaleplon], the cell viability came out at 138.

Compound `CC(NC(C)(C)C)C(=O)c1cccc(Cl)c1` (stereo not given) [Bupropion] had a cell viability of 121.

Regarding `CC1(C)C(C=C(Cl)Cl)C1C(=O)OCc1cccc(Oc2ccccc2)c1` (stereo not given) [Permethrin], the cell viability worked out at 111.

`CC(C)N(CCC(C(N)=O)(c1ccccc1)c1ccccn1)C(C)C` (stereo not given) [Disopyramide]: the cell viability was found to be 113.

Turning to `O=P1(NCCCl)OCCCN1CCCl` (stereo not given) [Ifosfamide], the cell viability was 68.2.

`NCC1(CC(=O)O)CCCCC1` [Gabapentin] registered a cell viability of 58.9.

Turning to `N[C@@H](Cc1ccc(N(CCCl)CCCl)cc1)C(=O)O` [Melphalan], the cell viability was 59.7.

Consider `C[N+]1(C)[C@@H]2C[C@@H](OC(=O)[C@H](CO)c3ccccc3)C[C@H]1[C@@H]1O[C@@H]12` [(-)-Scopolamine Methyl Bromide], for which the cell viability turned out to be 99.6.

Take `N[C@@H]1C[C@H]1c1ccccc1.N[C@H]1C[C@@H]1c1ccccc1` [Tranylcypromine Hemisulfate]: the cell viability was 56.9.

In the case of `CC(O)(CS(=O)(=O)c1ccc(F)cc1)C(=O)Nc1ccc(C#N)c(C(F)(F)F)c1` (stereo not given) [Bicalutamide], the cell viability was determined as 67.

Take `CN1CCN(C(=O)O[C@H]2c3nccnc3C(=O)N2c2ccc(Cl)cn2)CC1` [Eszopiclone]: the cell viability is 98.7.

For the compound `NCC(CC(=O)O)c1ccc(Cl)cc1` (racemic) [(±)-Baclofen], the cell viability stood at 121.

`NCCCNCCSP(=O)(O)O` [Amifostine] came in with a cell viability of 64.1.

`O=C1CC[C@@]2(O)[C@H]3Cc4ccc(O)c5c4[C@@]2(CCN3CC2CC2)[C@H]1O5` [Naltrexone·HCl] registered a cell viability of 61.1.

With `COc1ccc2c(c1)[C@]13CCCC[C@@H]1[C@H](C2)N(C)CC3` [Dextromethorphan], the cell viability came to 71.8.

Compound `COC[C@@H](NC(C)=O)C(=O)NCc1ccccc1` [Lacosamide] registered a cell viability of 118.

The compound `CC[C@@H](C(N)=O)N1CCCC1=O` [Levetiracetam] displayed a cell viability of 64.3.

`CC(C)c1cccc(C(C)C)c1O` [Propofol] showed a cell viability of 59.5.

The compound `O=P1(N(CCCl)CCCl)NCCCO1` (stereo not given) [Cyclophosphamide . monohydrate] had a cell viability of 67.8.

Regarding `Nc1ccncc1` [4-Aminopyridine], the cell viability is 109.

The compound `Oc1ccc2c3c1O[C@H]1[C@@H](O)CC[C@@]4(O)[C@@H](C2)N(CC2CCC2)CC[C@]314` [Nalbuphine hydrochloride hydrate] returned a cell viability of 63.1.

`COc1cc([C@@H]2c3cc4c(cc3[C@H](O)[C@H]3COC(=O)[C@H]23)OCO4)cc(OC)c1OC` [Podophyllotoxin] showed a cell viability of 44.6.

The next assay relates to U2OS. The assay is described as above. As to conditions: 10 µM; 48 h.
`CN1C[C@H](C(=O)N[C@]2(C)O[C@@]3(O)[C@@H]4CCCN4C(=O)[C@H](Cc4ccccc4)N3C2=O)C[C@@H]2c3cccc4[nH]cc(c34)C[C@H]21` [Dihydroergotamine Mesylate] showed a cell viability of 120.

Turning to `CN(C)C(=O)Oc1ccc[n+](C)c1` [Pyridostigmine Bromide], the cell viability is 94.2.

On to `N.N.[Cl][Pt][Cl]` [Cisplatin], for which the cell viability was determined as 94.5.

`CCN(C(C)=O)c1cccc(-c2ccnc3c(C#N)cnn23)c1` [Zaleplon]: the cell viability was 85.

As to `CC(NC(C)(C)C)C(=O)c1cccc(Cl)c1` (stereo not given) [Bupropion], the cell viability amounted to 104.

`CC1(C)C(C=C(Cl)Cl)C1C(=O)OCc1cccc(Oc2ccccc2)c1` (stereo not given) [Permethrin]: the cell viability came to 103.

Compound `CC(C)N(CCC(C(N)=O)(c1ccccc1)c1ccccn1)C(C)C` (stereo not given) [Disopyramide] gave a cell viability of 108.

Consider `O=P1(NCCCl)OCCCN1CCCl` (stereo not given) [Ifosfamide], for which the cell viability is 101.

The compound `NCC1(CC(=O)O)CCCCC1` [Gabapentin] showed a cell viability of 112.

For the compound `N[C@@H](Cc1ccc(N(CCCl)CCCl)cc1)C(=O)O` [Melphalan], the cell viability amounted to 87.6.

The compound `C[N+]1(C)[C@@H]2C[C@@H](OC(=O)[C@H](CO)c3ccccc3)C[C@H]1[C@@H]1O[C@@H]12` [(-)-Scopolamine Methyl Bromide] displayed a cell viability of 102.

`N[C@@H]1C[C@H]1c1ccccc1.N[C@H]1C[C@@H]1c1ccccc1` [Tranylcypromine Hemisulfate] came in with a cell viability of 107.

`CC(O)(CS(=O)(=O)c1ccc(F)cc1)C(=O)Nc1ccc(C#N)c(C(F)(F)F)c1` (stereo not given) [Bicalutamide] had a cell viability of 101.

`CN1CCN(C(=O)O[C@H]2c3nccnc3C(=O)N2c2ccc(Cl)cn2)CC1` [Eszopiclone] had a cell viability of 53.4.

As to `NCC(CC(=O)O)c1ccc(Cl)cc1` (racemic) [(±)-Baclofen], the cell viability was 109.

Consider `NCCCNCCSP(=O)(O)O` [Amifostine], for which the cell viability turned out to be 118.

In turn, `O=C1CC[C@@]2(O)[C@H]3Cc4ccc(O)c5c4[C@@]2(CCN3CC2CC2)[C@H]1O5` [Naltrexone·HCl] yielded a cell viability of 117.

With `COc1ccc2c(c1)[C@]13CCCC[C@@H]1[C@H](C2)N(C)CC3` [Dextromethorphan], the cell viability amounted to 102.

As to `COC[C@@H](NC(C)=O)C(=O)NCc1ccccc1` [Lacosamide], the cell viability was 81.1.

In the case of `CC[C@@H](C(N)=O)N1CCCC1=O` [Levetiracetam], the cell viability is 100.

Consider `CC(C)c1cccc(C(C)C)c1O` [Propofol], for which the cell viability stood at 105.

Consider `O=P1(N(CCCl)CCCl)NCCCO1` (stereo not given) [Cyclophosphamide . monohydrate], for which the cell viability is 101.

Turning to `Nc1ccncc1` [4-Aminopyridine], the cell viability was 90.5.

As for `Oc1ccc2c3c1O[C@H]1[C@@H](O)CC[C@@]4(O)[C@@H](C2)N(CC2CCC2)CC[C@]314` [Nalbuphine hydrochloride hydrate], the cell viability stood at 106.

On to `COc1cc([C@@H]2c3cc4c(cc3[C@H](O)[C@H]3COC(=O)[C@H]23)OCO4)cc(OC)c1OC` [Podophyllotoxin], for which the cell viability amounted to 64.2.
